# Experimental data taken from PubChem BioAssay (NCATS).
# “And” between values parts separate entries of the source, which are not always exact repeats. Equal entries are not always repeated. This is one part of the list. Further columns of the screen follow, without active or inactive calls. Compounds called inactive in the main read-out are mostly missing here. For some of these results: The note in brackets gives the kind of curve behind each potency; many fits are weak.
# Key:
# [1] = qHTS assay for small molecule antagonists of androgen receptor signaling (AID 588516); conditions: AR-UAS-bla HEK293, beta-lactamase ratio, antagonist mode, 16 h
# Method in brief: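 Antagonist-mode qHTS: inhibition of R1881 (10 nM)-driven beta-lactamase expression in GripTite HEK 293 cells is measured after 16 h; values are Hill-derived IC50s normalized between R1881 and DMSO wells.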
# [2] = qHTS assay for small molecule antagonists of glucocorticoid receptor signaling (AID 588533); conditions: HeLa MMTV-bla, GRE beta-lactamase ratio, antagonist mode, 18 h; measured here: W530 channel AC50
# [3] = qHTS assay for small molecule antagonists of peroxisome proliferator-activated receptor delta signaling (AID 588535); conditions: HEK293T PPARd-UAS-bla, beta-lactamase FRET ratio, 18 h; 460 nm channel;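 further: cells co-treated with a PPAR-delta agonist as stimulator during compound exposure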
# Method in brief: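 Reporter: UAS-bla under PPAR-delta response element, HEK293T host. Medium: 2% charcoal/dextran FBS. Dosing: titration, 18 hrs, 37 C. Detection: CCF4, 2 hrs RT, 405 ex/460 and 530 em.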
# [4] = qHTS assay for small molecule antagonists of vitamin D receptor signaling (AID 588541); conditions: HEK293T VDR-UAS-bla, beta-lactamase ratio, antagonist mode; measured here: W460 blue channel (cell viability)
# [5] = qHTS assay for small molecule agonists of retinoid X receptor alpha signaling (AID 588544); conditions: HEK293T RXRa-UAS-bla, beta-lactamase reporter, 18 h; 530 nm emission
# [6] = qHTS assay for small molecule antagonists of retinoid X receptor alpha signaling (AID 588546); conditions: HEK293T RXRa-UAS-bla, beta-lactamase ratio, antagonist mode; measured here: W530 green channel, cytotoxicity proxy;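 further: cells stimulated with 9-cis-retinoic acid as agonist; on the % scale 0 is the no-effect control and ±100 the full control effect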
# Method in brief: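 Beta-lactamase reporter inhibition, read as CCF4 fluorescence ratio (ex 405, em 460/530 nm) after 2 h at RT. HEK293T UAS-bla cells, 2500/well, were stimulated with 9-cis-RA at 500 or 100 nM final alongside test compound for 18 h at 37 C.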
# [7] = qHTS assay for small molecule antagonists of peroxisome proliferator-activated receptor gamma signaling (AID 588537); conditions: HEK293 PPARg-UAS-bla, beta-lactamase ratio, antagonist mode; measured here: W460 blue channel
# Method in brief: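 We seeded GeneBLAzer HEK293 reporter cells at 3000 per well, allowed 6-6.5 h attachment at 37 C, then co-treated with test compound titrations and 50 nM rosiglitazone overnight (16 h). Inhibition was quantified from 460/530 nm emission ratios.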
# [8] = measured here: W530 green channel, cytotoxicity/artifact
# [9] = measured here: W460 blue channel fit
smiles,measurement,setting,value
CCC[CH2][Sn]([CH2]CCC)[CH2]CCC,AC50,[1]; [8],"2.82 µM [rising, partial curve, poor fit]"
same,AC50,[2],"39.8 µM [falling, partial curve, poor fit]"
same,max response,[3],-81.5%
same,AC50,[4],"15.8 µM [falling, full curve]"
same,max response,[5],-27.3%
same,max response,[6],-52.4%
CCc1cccc(CC)c1N(COC)C(=O)CCl,AC50,[1]; [9],"50.1 µM [falling, partial curve, poor fit] and 100 µM [falling, partial curve, poor fit]"
same,max response,[3],-13.4% and 92.8%
same,AC50,[7],"15.8 µM [falling, partial curve, poor fit] and 25.1 µM [falling, partial curve, poor fit]"
same,max response,[5],34.9%
same,max response,[6],24%
Nc1ccc([N+](=O)[O-])cc1Cl,AC50,[1]; [9],"50.1 µM [falling, single point]"
same,AC50,[7],"20 µM [falling, full curve, poor fit]"
Oc1cc(Cl)c(Cl)c(Cl)c1Cl,AC50,[1]; [8],"20 µM [rising, partial curve, poor fit]"
same,AC50,[2],"17.8 µM [falling, partial curve, poor fit]"
same,max response,[3],61.6%
same,AC50,[7],"12.6 µM [falling, full curve]"
same,max response,[5],22.8%
same,max response,[6],5.12%
C[C@@H]1Cc2c(Cl)cc(C(=O)N[C@@H](Cc3ccccc3)C(=O)O)c(O)c2C(=O)O1,AC50,[1]; [9],"2.24 µM [falling, full curve]"
same,AC50,[1]; [8],"12.6 µM [rising, full curve]"
same,AC50,[7],"2.82 µM [falling, full curve, poor fit]"
same,max response,[5],-8.52%
same,max response,[6],10.6%
CCOc1nc(NC)nc(NC(=O)NS(=O)(=O)c2ccccc2C(=O)OC)n1,AC50,[1]; [9],"0.00141 µM [falling, full curve, poor fit]"
same,max response,[5],-3.18%
CCCCCCCCOC(=O)c1ccccc1C(=O)OCCCCCCCC,AC50,[1]; [9],"0.0316 µM [falling, full curve, poor fit]"
same,AC50,[7],"63.1 µM [rising, single point]"
O=[N+]([O-])c1ccc(Cl)c([N+](=O)[O-])c1,AC50,[1]; [9],"50.1 µM [falling, single point]"
same,max response,[3],-71.6%
same,AC50,[4],"44.7 µM [falling, partial curve, poor fit]"
same,max response,[5],-31.7%
same,max response,[6],-39.6%
CO/N=C(/C(=O)OC)c1ccccc1COc1ccccc1C,AC50,[1]; [9],"31.6 µM [falling, partial curve, poor fit]"
same,AC50,[1]; [8],"25.1 µM [rising, partial curve, poor fit]"
same,max response,[3],-61.8%
same,max response,[6],20.3%
N#Cc1cc(Br)c(O)c(Br)c1,AC50,[1]; [8],"25.1 µM [rising, partial curve]"
same,max response,[3],18.1%
CC1(C)CN=C(NN=C(/C=C/c2ccc(C(F)(F)F)cc2)/C=C/c2ccc(C(F)(F)F)cc2)NC1,AC50,[1]; [9],"39.8 µM [falling, partial curve, poor fit]"
same,AC50,[2],"39.8 µM [falling, partial curve]"
same,AC50,[7],"35.5 µM [falling, partial curve, poor fit]"
same,AC50,[4],"35.5 µM [falling, partial curve]"
same,max response,[5],-52.6%
same,max response,[6],-41.8%
CCCCCC[N+](=O)[O-],AC50,[1]; [9],"0.0355 µM [falling, full curve, poor fit]"
same,max response,[3],-26.1%
same,AC50,[7],"0.0398 µM [falling, full curve, poor fit]"
CCC[CH2][Sn]1([CH2]CCC)[O]C(=O)C=CC(=O)[O]1,AC50,[1]; [9],"7.94 µM [falling, full curve]"
same,AC50,[1]; [8],"39.8 µM [rising, partial curve]"
same,AC50,[7],"44.7 µM [falling, partial curve]"
same,AC50,[4],"5.01 µM [falling, full curve]"
same,max response,[5],39.8%
same,max response,[6],44.4%
CCOc1cc(C(C)(C)C)ccc1C1COC(c2c(F)cccc2F)=N1 (centres undefined),AC50,[1]; [9],"63.1 µM [falling, single point]"
same,AC50,[1]; [8],"35.5 µM [rising, partial curve]"
same,max response,[5],14.5%
same,max response,[6],-14.1%
CCCCNC(=O)n1c(NC(=O)OC)nc2ccccc21,AC50,[1]; [9],"3.16 µM [falling, full curve, poor fit]"
same,AC50,[2],"39.8 µM [falling, partial curve, poor fit]"
same,AC50,[7],"0.001 µM [falling, full curve, poor fit]"
same,AC50,[4],"7.94 µM [falling, partial curve, poor fit]"
same,max response,[5],32.5%
same,max response,[6],1.11%

# Three entries picked at random from the list so far, as already listed:
smiles,measurement,setting,value
O=[N+]([O-])c1ccc(Cl)c([N+](=O)[O-])c1,max response,[5],-31.7%
same,AC50,[4],"44.7 µM [falling, partial curve, poor fit]"
CCOc1nc(NC)nc(NC(=O)NS(=O)(=O)c2ccccc2C(=O)OC)n1,AC50,[1]; [9],"0.00141 µM [falling, full curve, poor fit]"
